From patent publication US9682992B2, “Derivatives of camptothecin, a method of producing them and their use” (INSTYTUT CHEMII ORGANICZNEJ POLSKIEJ AKADEMII NAUK, priority 2012, dated 2017)

Tested on: DNA oligomer d(GCGATCGC)2
Test: PFGSE NMR diffusion measurement of DNA/TPT derivative before and after UV exposure
Type: binding
Settings: prior to UV exposure, FIG. 1

CC[C@@]1(O)C(=O)OCc2c1cc1n(c2=O)Cc2cc3c(C[N+](C)(C)C)c(O)ccc3nc2-1.O=S(=O)([O-])C(F)(F)F [[Me3N^+CF3SO3^−]]
diffusion coefficient Di of DNA with non-covalently bound derivative of TPT: ca. 1.7×10^−10 m^2/s
diffusion coefficient Di of unbound derivative of TPT in rapid exchange with DNA: 2.3×10^−10 m^2/s
